Laboratory results as given in PubChem BioAssay AID1671190 (National Center for Advancing Translational Sciences (NCATS), 2021).
Screen size: about 580,000 compounds; about 6,100 (1.1%) were called active. The shares of active, inactive and inconclusive entries below differ from those in the screen. Calls follow the shape of the dose curve; as a rule, active = well fitted inhibition curve with a large enough effect; inconclusive = small, poorly fitted or top-dose-only effect, or another doubt; inactive = no such curve, though single readings can be large or run the other way. Potencies beside an inconclusive call are fits to weak or partial responses and may not hold up.

By UniProt entry, the sequences of proteins in these tests, tags left out. Where a name states a change or a piece, a line headed by the entry shows the natural chain unless it says otherwise.
UniProt P18054: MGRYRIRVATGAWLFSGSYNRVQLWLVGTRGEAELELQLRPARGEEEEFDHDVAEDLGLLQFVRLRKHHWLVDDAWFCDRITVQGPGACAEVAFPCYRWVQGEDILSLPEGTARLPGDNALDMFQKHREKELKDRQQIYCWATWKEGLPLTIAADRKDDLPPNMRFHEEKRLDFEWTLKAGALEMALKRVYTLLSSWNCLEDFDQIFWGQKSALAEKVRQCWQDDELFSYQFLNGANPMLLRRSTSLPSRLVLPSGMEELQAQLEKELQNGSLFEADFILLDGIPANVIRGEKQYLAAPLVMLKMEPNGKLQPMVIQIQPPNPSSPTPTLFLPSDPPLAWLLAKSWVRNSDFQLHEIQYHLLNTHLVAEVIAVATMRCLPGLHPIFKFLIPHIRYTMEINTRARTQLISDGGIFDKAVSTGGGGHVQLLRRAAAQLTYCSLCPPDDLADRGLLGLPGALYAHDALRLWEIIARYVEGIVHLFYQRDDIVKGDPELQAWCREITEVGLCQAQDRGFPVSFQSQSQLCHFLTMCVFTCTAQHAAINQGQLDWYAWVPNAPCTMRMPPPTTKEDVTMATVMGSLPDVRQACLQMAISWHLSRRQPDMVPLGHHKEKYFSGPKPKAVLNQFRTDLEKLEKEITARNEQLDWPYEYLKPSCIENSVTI

target: Polyunsaturated fatty acid lipoxygenase ALOX12 (Homo sapiens) (UniProt P18054); experiment: Primary qHTS assay for inhibitors of human arachidonate 12S-lipoxygenase (ALOX12): Round 2; conditions: purified 12hLO, xylenol orange hydroperoxide absorbance; activity change, negative = inhibition: at 108 µM (top of the series) unless noted
Outline: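 Purified human 12hLO at 150 nM in 25 mM Hepes, 0.01% Triton X-100, pH 7.0, preincubated 15 min at room temperature with compound. Reaction started with 40 uM arachidonic acid, 30 min at room temperature. Hydroperoxide measured by Fe-xylenol orange, 573/405 nm absorbance ratio.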
% is scaled to controls: 0 for no effect and ±100 for the full control effect; potency is read from the fitted curve at half-maximal effect.

SMILES	Potency	activity change, negative = inhibition
Cc1cc(=O)oc(C)c1C(=O)Nc1ccc(N(C)C)cc1	inconclusive: 100 µM [inhibitor, single point]	–
CCOC(=O)c1c(/N=C/N(C)C)sc(/C=N/Nc2ccccc2)c1-c1ccccc1	inconclusive: 50.1 µM [inhibitor, partial curve, poor fit]	–
O=C(CC(c1ccccc1)c1ccccc1)Nc1ccc(Oc2ccccc2)cc1	inconclusive: 56.2 µM [inhibitor, partial curve, poor fit]	–
O=C(O)c1cc(Cl)c(Cl)cc1C(=O)NCc1ccco1	inconclusive: 100 µM [inhibitor, single point]	–
COC(=O)C1(C)NC(c2cccc(C)c2)C2C(=O)N(c3ccccc3)C(=O)C21 (stereo not given)	inconclusive: 0.251 µM [inhibitor, full curve, poor fit]	–
CCOC(=O)CSc1nc2c(sc(=S)n2-c2ccc(CC)cc2)c(=O)[nH]1	inconclusive: 141 µM [inhibitor, single point]	–
OC1(CN2CCC(c3nc(-c4ccccc4)no3)CC2)CNCCOC1 (stereo not given)	–	inactive: -19.2%
Cc1ccc(C(=O)N2CCC(C)CC2)cc1NC(=O)c1nsc2ccccc12	inconclusive: 100 µM [inhibitor, partial curve, poor fit]	–
CCc1cccc2c(C(CC(=O)NCC(C)C)c3cccc([N+](=O)[O-])c3)c[nH]c12 (stereo not given)	inconclusive: 15.8 µM [inhibitor, full curve]	–
O=c1[nH]c(/C=C\c2ccc(O)c(Cl)c2)nc(O)c1[N+](=O)[O-]	inconclusive: 35.5 µM [inhibitor, partial curve]	–
C=CCSc1nnc(NC(=O)c2cc(=O)c3cc(CC)ccc3o2)s1	–	inactive: 14.5%
CCc1cccc(C)c1Nc1c(-c2ccccc2O)nc2cnccn12	inconclusive: 89.1 µM [inhibitor, partial curve, poor fit]	–
COc1ccccc1-c1nnc(C2CCN(S(=O)(=O)c3ccc(F)c(C)c3)CC2)o1	–	inactive: 3.09%
COc1ccc(C(CNC(=O)Cn2[nH]c(=O)c3ccccc3c2=O)N2CCCC2)cc1 (stereo not given)	inconclusive: 141 µM [inhibitor, single point]	–
Cc1noc(C)c1S(=O)(=O)NCCc1csc2nc(-c3ccc(Cl)cc3)nn12	inconclusive: 100 µM [inhibitor, partial curve, poor fit]	–
Cc1sc2nc(SCC(=O)NCc3ccco3)n(C)c(=O)c2c1C	–	inactive: 2.93%
Clc1ccccc1-c1noc(-c2nc(-c3ccncc3)no2)n1	–	inactive: 14.2%
CN(C(=O)c1cccc(NC(=O)Cc2ccc(NC(=O)C3CCCN(C(=O)CCc4ccccc4)C3)cc2)c1)C1CCC1 (stereo not given)	inconclusive: 141 µM [inhibitor, single point]	–
Cc1ccc2nc(-c3ccco3)c(Cc3ccccc3C(F)(F)F)n2c1	inconclusive: 126 µM [inhibitor, single point]	–
CCCCc1nn2c(=O)cc(COC(=O)c3ccccc3NC(=O)c3cccc(C)c3)nc2s1	–	inactive: -5.81%
C=CCNC(=S)NCCO	inconclusive: 5.01 µM [inhibitor, full curve]	–
CC[C@H](C)[C@H]1CNC(=S)N1CC1CCN(CC2CCC(C)CC2)CC1 (stereo not given in full)	–	inactive: -9.34%

Some values from above:
Entry for Cc1ccc(C(=O)N2CCC(C)CC2)cc1NC(=O)c1nsc2ccccc12 under Potency: inconclusive: 100 µM [inhibitor, partial curve, poor fit]
Entry for O=c1[nH]c(/C=C\c2ccc(O)c(Cl)c2)nc(O)c1[N+](=O)[O-] under Potency: inconclusive: 35.5 µM [inhibitor, partial curve]

Next part

SMILES	Potency	activity change, negative = inhibition
O=c1cc(CN2CCOCC2)occ1OCCCCCSc1ccnc2cc(C(F)(F)F)ccc12	inconclusive: 24.3 µM [inhibitor, partial curve, poor fit]	–
CCOC(=O)NC(=O)/C(C#N)=N\Nc1cccc(Cl)c1	active: 0.398 µM	–
O=c1cc(-c2ccccc2Cl)oc2ccc(Br)cc12	inconclusive: 44.7 µM [inhibitor, partial curve, poor fit]	–
FC(F)(F)c1nc(-c2ccccc2)ncc1-c1nnnn1-c1ccccc1	inconclusive: 2 µM [inhibitor, full curve, poor fit]	–
CCCCC(CC)CNC(=S)Nc1ccc(C(C)CC)cc1 (stereo not given)	inconclusive: 25.1 µM [inhibitor, single point]	–
Cc1nc(-c2ccc(F)cc2)sc1CCNC(=O)c1ccc(C(C)(C)C)cc1	inconclusive: 112 µM [inhibitor, partial curve, poor fit]	–
O=C(NCc1n[nH]c(=S)n1-c1ccc(F)cc1)c1ccc(S(=O)(=O)N2CCCCC2)cc1	inconclusive: 56.2 µM [inhibitor, partial curve, poor fit]	–
Brc1ccc(-c2ccc3c(n2)CCCN3Cc2ccccn2)cc1	inconclusive: 8.91 µM [inhibitor, full curve]	–
COc1ccccc1N1CCN(C(=O)C[C@@H]2C[C@@H](C(C)C)[C@H](CC#N)C=C2C)CC1	inconclusive: 112 µM [inhibitor, partial curve, poor fit]	–
O=C(NCCN1C(=O)S/C(=C\c2ccc(F)cc2)C1=O)C1CCN(S(=O)(=O)c2cccs2)CC1	–	inactive: -20%
Cc1cccc(COC[C@H](CC(C)C)N2CCN(C(=O)c3ccc(C(C)(C)C)cc3)CCC2=O)c1	inconclusive: 70.8 µM [inhibitor, partial curve, poor fit]	–
CCSc1oc(-c2ccc(C)cc2)nc1S(=O)(=O)c1ccccc1	active: 31.6 µM	–
S=C1NC(C23CC4CC(CC(C4)C2)C3)=CC(c2ccccc2Cl)N1 (stereo not given)	inconclusive: 112 µM [inhibitor, partial curve, poor fit]	–
CC1(OC(=O)CCc2ccccc2)C(=O)C=C2C=C(c3ccc(C#N)cc3)N(C3CC3)C=C2C1=O (stereo not given)	–	inactive: -29.1%
C=CCNC(=S)N1CCN(Cc2ccc3c(c2)OCO3)CC1	inconclusive: 17.8 µM [inhibitor, full curve, poor fit]	–
COc1cc(NC(=O)C2CCN(S(=O)(=O)c3cccs3)CC2)cc(OC)c1	inconclusive: 100 µM [inhibitor, partial curve, poor fit]	–
O=S1(=O)CC(O)C(NCc2cccnc2)C1 (stereo not given)	–	inactive: 0.314%
CC1(C(=O)NC2CCCCC2)CCC(=O)N1Cc1cccs1 (stereo not given)	inconclusive: 141 µM [inhibitor, single point]	–
CCCN1CCC(N(CCc2ccccc2)Cc2ccccc2)CC1	inconclusive: 3.55 µM [inhibitor, full curve, poor fit]	–
COC(=O)CN1C(=O)N(CCc2ccccc2)C2(CCN(Cc3ccc4c(c3)CCO4)CC2)C1=O	–	inactive: 45.1%
Fc1ccc(CNC(=S)Nc2cccc(C(F)(F)F)c2)cc1	inconclusive: 44.7 µM [inhibitor, partial curve, poor fit]	–
O=C(c1ccc(Br)o1)N1CCC(Cc2ccccc2)CC1	inconclusive: 4.47 µM [inhibitor, full curve, poor fit]	–

SMILES	Potency	activity change, negative = inhibition
Cc1nc2ccc(N)cc2c(=O)n1Cc1ccc(Cl)cc1	inconclusive: 50.1 µM [inhibitor, partial curve]	–
O=C(Oc1ccc2ccccc2c1Br)N1CCCCCC1	–	inactive: 2.36%
Cc1ccc(C(=O)N2CCc3sc(C(=O)NCc4ccc(F)cc4)cc3C2)cc1	–	inactive: 15.3%
CC(=O)c1cccc(NC(=O)CSc2ccc(-c3ccco3)nn2)c1	inconclusive: 14.1 µM [inhibitor, full curve, poor fit]	–
COC(=O)c1cc(OC)c(OC)cc1NC(=O)C1CCC(=O)N1S(=O)(=O)c1ccc(C)cc1 (stereo not given)	inconclusive: 112 µM [inhibitor, single point]	–
CCCN1C(=O)C2(C(C(=O)c3ccc(C)o3)=C(O)C(=O)N2CCN(C)C)c2ccccc21 (stereo not given)	–	inactive: -5.01%
COC(=O)C1CCN(S(=O)(=O)c2ccc(Br)s2)CC1	inconclusive: 112 µM [inhibitor, single point]	–
COc1cc(OC)c(CN2CCCN(C)CC2)cc1Br	inconclusive: 0.708 µM [inhibitor, full curve, poor fit]	–
CC(C(=O)Nc1ccc(C#N)cc1)n1nnc(-c2ccc(F)cc2)n1 (stereo not given)	inconclusive: 79.4 µM [inhibitor, partial curve, poor fit]	–
CCNC(=O)CC1SC(=Nc2ccccc2C)N(C)C1=O (stereo not given)	–	inactive: -8.59%
CCc1nc(NCc2ccccn2)c2oc3ccccc3c2n1	inconclusive: 35.5 µM [inhibitor, partial curve, poor fit]	–
CCCCNc1c(-c2ccc(SC(C)CC)c(OC)c2)nc2ccc(C)cn12 (stereo not given)	inconclusive: 56.2 µM [inhibitor, partial curve, poor fit]	–
COc1cccc(Nc2c3c(nc4c(-c5ccccc5)c(C)nn24)CCC3)c1	–	inactive: -7.12%
Cc1nnc(Sc2nc3ccccc3o2)c2ccccc12	inconclusive: 39.8 µM [inhibitor, partial curve, poor fit]	–
O=C(c1ccc(S(=O)(=O)Nc2ccccc2F)cc1)N1CCCC1	inconclusive: 39.8 µM [inhibitor, partial curve, poor fit]	–
COc1cccc(C2C3=C(N=c4s/c(=C\c5cccc(O)c5)c(=O)n42)c2ccccc2CC3)c1OC (stereo not given)	inconclusive: 63.1 µM [inhibitor, partial curve, poor fit]	–
COc1ccc(C)cc1S(=O)(=O)Nc1cc2c3c(c1)CCC(=O)N3CCC2	inconclusive: 79.4 µM [inhibitor, partial curve, poor fit]	–
COC(=O)c1cc(S(=O)(=O)NCC2CCN(Cc3ccc(Cl)cc3)CC2)c[nH]1	inconclusive: 100 µM [inhibitor, single point]	–
COc1ccc(CN2CCN(c3ncnc4scc(-c5ccc(F)cc5)c34)CC2)cc1	inconclusive: 112 µM [inhibitor, single point]	–
Cc1cccc(C2CCCN(C(=O)c3cn(CCc4ccccc4)nn3)C2)c1 (stereo not given)	–	inactive: -1.87%
Cc1ccc2c(=O)cc(C(=O)N(Cc3ccccc3)Cc3ccco3)oc2c1C	active: 35.5 µM	–

Given bar-delimited: entries from further up
SMILES | Potency | activity change, negative = inhibition
Cc1nnc(Sc2nc3ccccc3o2)c2ccccc12 | inconclusive: 39.8 µM [inhibitor, partial curve, poor fit] | –
O=C(c1ccc(S(=O)(=O)Nc2ccccc2F)cc1)N1CCCC1 | inconclusive: 39.8 µM [inhibitor, partial curve, poor fit] | –
